Experimental data: PubChem BioAssay AID1347423 (Functional Genomics Laboratory (NCATS/FGL), 2020)
Out of some 52,000 sequences screened, about 210 (0.4%) were called active.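 How the source made its calls: active means gene whose silencing raises cell survival under the drug, median off-target-corrected z-score across its silencing RNAs 2 or more; inactive means the rest.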 Some of the results follow.

assay: Resistance to Poly (ADP-Ribose) Polymerase inhibitor: Gene Identification via Genome-wide siRNA Screen; conditions: mouse BRCA2 R2336H ES cells, olaparib, CellTiter-Glo viability; hits give high values
Method in brief: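 Mouse BRCA2 R2336H ES cells were reverse-transfected with siRNA (20 nM final), treated at 48 h with 500 nM olaparib, and read by CellTiter-Glo after 72 h. Scores: MAD-based z per siRNA, median per gene, seed off-target correction.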

Sequence | z-score
GGUGAAUUGAAGCAGUCCUTT against Gpr44 | inactive: 0.0213
GGAAAAUUGGACCAAUUUCTT against E130307J04Rik | inactive: 0.528
CCUUUAGAGUUUGAUCUGCTT against Cebpg | inactive: 0.389
GGUGUAUGCGUCACUAGAATT against Rxra | inactive: -1.74
GGAAAAGGAAAAGAAGAAGTT against Brd3 | inactive: -0.345
GCUGUGUGCCACUUUAUGUTT against Ebna1bp2 | inactive: -0.0364
GGGAUACCUCAUUUUUUCUTT against Olfr107 | inactive: -0.338
GGAGAAAACCAUCUUGGUUTT against Olfr284 | inactive: 0.188
GGCACAGAAGAAUGAGAGATT against Schip1 | inactive: -0.617
CCGUCCUGCAUCGGAUUUATT against Ppp2r5a | inactive: -0.0072
GGUCCGAGAACAUCAUCGATT against C77032 | inactive: -1.1
GCAAGUCCGGAUGUAAGGATT against A530001H01Rik | inactive: -3.16
GGCCUUUGCAUGCAAUAGUTT against BC031441 | inactive: 0.737
CCUACGCAGCAUGUGUGAATT against Exosc4 | inactive: -0.551
GGAAGUGGCUGUUGCUUCUTT against 9230106L18Rik | inactive: -0.403
GGUCUCAGAGCUACAUCCCTT against Plekha2 | inactive: 1.26
CCAAAGACAUCUCACACAGTT against Tgfb1 | inactive: -1.34
GGGCCUGUACAUCUUCCAATT against Anpep | inactive: 0.48
CCUCUAUGGUCUGCCUCAUTT against Spint2 | inactive: 1
GGAAUUUGGAAAGAUCUAUTT against B930018B01 | inactive: -0.496
GCAUCUCAGGGAUUUAGAUTT against Axot | inactive: -1.64
GCUCUGUUCUCCAAACUGCTT against Pyy | inactive: -0.77
GGAAGAAAUAGAUGAGAAUTT against Tnmd | inactive: 0.737

Sequence | z-score
GCCGGAUAGACCAAUUGGATT against Nlk | inactive: -0.386
GCAUGUUUUCCACAUGUCCTT against V1rb10 | inactive: 1.45
GGUAUCCUCUUUUUUAACCTT against Exosc9 | inactive: -0.213
GGUGGAUAAAGCUUAAAUATT against V1rg10 | inactive: -0.066
GGAUCUUGAUCUUAGGACATT against D17H6S56E-3 | inactive: -1.52
GUAUUUCCAGUAUUACUUGTT against AI467606 | inactive: -0.296
GGACGUACUCCGGAGCUUUTT against Mal2 | inactive: -0.509
GCCAUGAUUAUUUACCGUGTT against 4921513O20Rik | inactive: 0.194
GCAAGACUGAGAGAAUUGGTT against Pi16 | inactive: 1.15
CGAACGUGCCAACUUACUATT against Gpd2 | inactive: 0.42
GGUUACCAACCUUCUCAUGTT against Ptbp1 | inactive: -0.0343
GCAAUAAGUCUCGGGAACATT against 5330427M13Rik | inactive: 0.978
GGCCUUGAAAGCCAUUGGUTT against Kmo | inactive: -2.14
GGAUUACGAAAAUCAUGGUTT against Polr3e | inactive: 0.641
GCGUGAGAAGAGCAUUGAGTT against D030060O14Rik | inactive: -1.91
GGUAAAAGAGGCAAUUACGTT against Olfr1497 | inactive: 0.221
GGGAUUGAACAGUUAUGUATT against Rpo2tc1 | inactive: -1.23
GCUUUCAGGGAAACUUGCCTT against Ky | inactive: 1.02
GCCAGUCAUGCCUAUUUUCTT against 9330177P20Rik | inactive: -2.09
GGAAGUUGUACGGACAGACTT against Nr4a1 | inactive: -0.534
GGAUUCUGAACCUUACAGATT against Hoxd9 | inactive: 0.419
GGACAAUUAACGAUCCCACTT against Pdxp | inactive: 0.23
GACUGCUUCCUUCUGACUGTT against Olfr399 | inactive: 1.45

In another format: results already given
Sequence	z-score
GCAAGACUGAGAGAAUUGGTT against Pi16	inactive: 1.15
CGAACGUGCCAACUUACUATT against Gpd2	inactive: 0.42
GGUUACCAACCUUCUCAUGTT against Ptbp1	inactive: -0.0343
GCAAUAAGUCUCGGGAACATT against 5330427M13Rik	inactive: 0.978
GGCCUUGAAAGCCAUUGGUTT against Kmo	inactive: -2.14
GGAUUACGAAAAUCAUGGUTT against Polr3e	inactive: 0.641
GCGUGAGAAGAGCAUUGAGTT against D030060O14Rik	inactive: -1.91
GGUAAAAGAGGCAAUUACGTT against Olfr1497	inactive: 0.221
GGGAUUGAACAGUUAUGUATT against Rpo2tc1	inactive: -1.23
GCUUUCAGGGAAACUUGCCTT against Ky	inactive: 1.02
GCCAGUCAUGCCUAUUUUCTT against 9330177P20Rik	inactive: -2.09
GGAAGUUGUACGGACAGACTT against Nr4a1	inactive: -0.534
GGAUUCUGAACCUUACAGATT against Hoxd9	inactive: 0.419
GGACAAUUAACGAUCCCACTT against Pdxp	inactive: 0.23

More results follow:

Sequence | z-score
GGCGGAGGAAAUUUCUGGATT against Creb5 | inactive: 0.369
GGAUCCUAACUAUAUUCUCTT against Pdyn | inactive: 0.318
CGUGAAGAUCGAACAGGACTT against Wfs1 | inactive: 0.932
GGUUAAGACUCACGACCUGTT against 1700092C17Rik | inactive: 1.39
GGACCACAUUCCCUUUUUUTT against A130038L21Rik | inactive: -0.792
GGAGAUUUGGAAAAGGCAATT against Clecsf13 | inactive: -1.17
GGUCAUUGCUUCCUAUGGCTT against Mgat1 | inactive: -0.62
GCUGUAAGCCAAUUAACAUTT against Emp1 | inactive: 0.6
GGAAAAAUUUUGGAUUCAGTT against Hmgb2l1 | inactive: 0.944
GGCGAUUUUGUGACUUCGUTT against Zadh1 | inactive: 0.44
CGAGGUCUAUGAGGUAGACTT against Tekt3 | inactive: 1.37
GGAAACAUAAGCAAAAACUTT against Vipr2 | inactive: -0.0309
GGAUGUGAGGUGCACCAGATT against Trpv6 | inactive: -0.941
GGAAUUGAGUAGCAGCUGATT against Polr2j | inactive: -1.9
GGCCAACCUGGAGAACUUGTT against Atp6v1c2 | inactive: 0.198
CGAUGAAAACUACUCGGCATT against Runx1 | inactive: 2.08
GGUGAAUUAUUGCUUUGAGTT against 2310004I24Rik | inactive: 2.15
GGUUUUUACCUACACUUGUTT against Rdh10 | inactive: -0.892
GGACCCGAAAAUAAUAUAGTT against Rasgef1b | inactive: -0.102
GGCCCUCAUCUUUGUGUCCTT against Mgll | inactive: 0.776
GGAGUUUUACCAGAAGCUGTT against Hs1bp3 | inactive: -0.65
